Source: PMC4288178, “CRISPR RNA binding and DNA target recognition by purified Cascade complexes from Escherichia coli”

T1: Cse1 (CasA) (E. coli) (UniProt Q46901)
T1 sequence: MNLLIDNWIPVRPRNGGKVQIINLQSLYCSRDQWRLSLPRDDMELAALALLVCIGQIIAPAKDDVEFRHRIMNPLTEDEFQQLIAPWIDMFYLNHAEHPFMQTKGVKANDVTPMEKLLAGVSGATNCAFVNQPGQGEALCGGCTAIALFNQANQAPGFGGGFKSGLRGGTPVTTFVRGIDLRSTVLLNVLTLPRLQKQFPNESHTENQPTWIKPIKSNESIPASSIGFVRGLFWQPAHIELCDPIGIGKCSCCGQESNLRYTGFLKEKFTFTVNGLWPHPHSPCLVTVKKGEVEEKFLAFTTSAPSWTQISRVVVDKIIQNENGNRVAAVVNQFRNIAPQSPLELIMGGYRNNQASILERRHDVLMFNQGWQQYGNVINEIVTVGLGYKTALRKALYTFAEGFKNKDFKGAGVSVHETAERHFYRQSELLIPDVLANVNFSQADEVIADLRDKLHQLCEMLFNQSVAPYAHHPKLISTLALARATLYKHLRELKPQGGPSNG


Experiments:
Cse1 (CasA) (E. coli) [1] = biological target: T1, Cse1 (CasA) (E. coli); assay: affinity purification with mass spectrometry; Cascade+: casABCDE operon co-expressed with g8 crRNA (pWUR615) in E. coli; N-terminal 6His-Cse1 held on a nickel-affinity column; 50 mM HEPES-K pH 7.5, 300 mM NaCl, 5% glycerol, 0-150 mM imidazole; fractions read by SDS-PAGE and in-gel trypsin digestion with LC-MS
Cse1 (CasA) (E. coli) [2] = biological target: T1, Cse1 (CasA) (E. coli); assay: affinity purification with mass spectrometry; Cascade-: casABCDE operon expressed in E. coli with deleted CRISPR cassette and without the crRNA plasmid pWUR615; N-terminal 6His-Cse1 held on a nickel-affinity column; same protocol; read by SDS-PAGE and LC-MS

Row | Binder | binding (Cse1 (CasA) (E. coli) [1]) | binding (Cse1 (CasA) (E. coli) [2])
1 | Cse2 (CasB) (protein, UniProt P76632 1-160) MADEIDAMALYRAWQQLDNGSCAQIRRVSEPDELRDIPAFYRLVQPFGWENPRHQQALLRMVFCLSAGKNVIRHQDKKSEQTTGISLGRALANSGRINERRIFQLIRADRTADMVQLRRLLTHAEPVLDWPLMARMLTWWGKRERQQLLEDFVLTTNKNA | binds | binds
2 | Cas7 (CasC) (protein, UniProt Q46899 1-363) MSNFINIHVLISHSPSCLNRDDMNMQKDAIFGGKRRVRISSQSLKRAMRKSGYYAQNIGESSLRTIHLAQLRDVLRQKLGERFDQKIIDKTLALLSGKSVDEAEKISADAVTPWVVGEIAWFCEQVAKAEADNLDDKKLLKVLKEDIAAIRVNLQQGVDIALSGRMATSGMMTELGKVDGAMSIAHAITTHQVDSDIDWFTAVDDLQEQGSAHLGTQEFSSGVFYRYANINLAQLQENLGGASREQALEIATHVVHMLATEVPGAKQRTYAAFNPADMVMVNFSDMPLSMANAFEKAVKAKDGFLQPSIQAFNQYWDRVANGYGLNGAAAQFSLSDVDPITAQVKQMPTLEQLKSWVRNNGEA | binds | binds
3 | Cas6e (CasE) (enzyme, UniProt Q46897 1-199) MYLSKVIIARAWSRDLYQLHQGLWHLFPNRPDAARDFLFHVEKRNTPEGCHVLLQSAQMPVSTAVATVIKTKQVEFQLQVGVPLYFRLRANPIKTILDNQKRLDSKGNIKRCRVPLIKEAEQIAWLQRKLGNAARVEDVHPISERPQYFSGDGKSGKIQTVCFEGVLTINDAPALIDLVQQGIGPAKSMGCGLLSLAPL | binds | binds

Results are given in words; binding and its absence hold for the method and conditions named. In cells and extracts the contact can be indirect. A yes stands for co-enrichment or nearness to the bait. Other partners may have been found.
